According to patent publication US4150049A, “Esters of aromatic sulfonic acids” (The Government of the United States, priority 1977, dated 1979):
At least one structure is not confirmed: it was looked up by name or label, or the drawing left a doubt.

Test system: thrombin
Test: nitrophenol release (substrate behavior) and inactivation of thrombin, residual enzyme titrated with NPGB
Assay type: biochemical, bovine or human

N=C(N)c1ccc(CS(=O)(=O)Oc2ccc([N+](=O)[O-])cc2)cc1 [p-isomer]
covalent modification / inactivation of thrombin: irreversibly inactivating the enzyme
